Taken from: PubChem BioAssay AID1159578 (Peter MacCallum Cancer Centre, 2015)
The whole screen tested about 18,000 reagents; shown is a random part of them. About 1,030 of all reagents (5.7%) count as active. 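Inactive calls also include pools with fewer than 3300 nuclei, whose migration was not assessed.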 Raw values are not corrected between plates. A number with no mark means an inactive call. Reagent sequences are not shown.

Aim: 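siRNA pools altering how lymphatic endothelial cells close a scratch wound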 (primary screen)
Cells: human lymphatic endothelial cells
Reagent: siRNA pool against human genes, 40 nM
Duration: 48 h after transfection
Measured: 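High-content imaging of dye-stained cells in a scratch assay measures filled wound area and nuclei per well; duplicate means given as ratio to mock and robust z-score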
Reading the numbers: migration robust z-score: higher = faster migration into the scratch; migration relative to mock: higher = more scratch area covered than mock; nuclei per well: higher = more cells in the well
Hit rule: 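Pools averaging fewer than 3300 nuclei are never called; remaining pools count as changed when migration robust z lies outside -2 to 2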
Meaning of the calls: active = migration changed; inactive = no migration change, or too few cells

gene | migration robust z-score | migration class with cell-count check | migration relative to mock | nuclei per well, duplicate mean
NAT1 | 1.5 | migration z between -2 and 2; enough cells | 1.09 | 6128
TTC13 | -0.3 | migration z between -2 and 2; enough cells | 0.81 | 5010
GLRX3 | -0.26 | migration z between -2 and 2; enough cells | 0.76 | 5578
MARS2 | 0.78 | migration z between -2 and 2; enough cells | 0.96 | 5544
GGA1 | 0 | migration z between -2 and 2; enough cells | 0.88 | 5934
TSPO | -3.68 | under 3300 nuclei; migration not judged | 0.1 | 3081
CKS1B | -0.96 | migration z between -2 and 2; enough cells | 0.62 | 5904
TRIM10 | 1.32 | migration z between -2 and 2; enough cells | 1.06 | 6243
KIFBP | 0.72 | migration z between -2 and 2; enough cells | 1.07 | 5674
OR10H5 | 0.8 | migration z between -2 and 2; enough cells | 1.09 | 5012
USP48 | 1.2 | migration z between -2 and 2; enough cells | 1.04 | 5596
UNC79 | -0.5 | migration z between -2 and 2; enough cells | 0.76 | 5298
HS3ST1 | -2.16 (active) | migration z below -2; enough cells | 0.39 | 5762
COPS7B | -0.02 | migration z between -2 and 2; enough cells | 0.88 | 6486
HMGB2 | -0.09 | migration z between -2 and 2; enough cells | 0.86 | 4854
ARHGAP6 | -0.62 | migration z between -2 and 2; enough cells | 0.72 | 6058
B9D2 | -0.81 | migration z between -2 and 2; enough cells | 0.68 | 6444
ANKRA2 | 0.16 | migration z between -2 and 2; enough cells | 0.92 | 5026
PTOV1 | -0.09 | migration z between -2 and 2; enough cells | 0.86 | 5984
S1PR2 | 0.24 | migration z between -2 and 2; enough cells | 0.85 | 5420
NUDT15 | 0.11 | migration z between -2 and 2; enough cells | 0.82 | 4473
CHST6 | -2.1 (active) | migration z below -2; enough cells | 0.4 | 5450
TTR | -1.45 | migration z between -2 and 2; enough cells | 0.52 | 4654
CHMP5 | 2.3 (active) | migration z above 2; enough cells | 1.49 | 6914
GPR55 | 0.29 | migration z between -2 and 2; enough cells | 0.86 | 6272
PLCB1 | -0.28 | migration z between -2 and 2; enough cells | 0.81 | 7412
ASIC5 | -0.46 | migration z between -2 and 2; enough cells | 0.72 | 4248
RBMY1B | -0.49 | migration z between -2 and 2; enough cells | 0.76 | 5502
SENP3 | -0.23 | migration z between -2 and 2; enough cells | 0.76 | 5012
MAML2 | -0.46 | migration z between -2 and 2; enough cells | 0.72 | 5746
FANCD2OS | -2.07 (active) | migration z below -2; enough cells | 0.35 | 5738
BROX | 0.66 | migration z between -2 and 2; enough cells | 1.06 | 6886
DDX53 | 0.04 | migration z between -2 and 2; enough cells | 0.9 | 5652
WFDC12 | -0.6 | migration z between -2 and 2; enough cells | 0.73 | 4650
UBE2D2 | -0.02 | migration z between -2 and 2; enough cells | 0.8 | 6708
ERCC5 | -1.97 | migration z between -2 and 2; enough cells | 0.42 | 5524
RIPOR2 | -0.42 | migration z between -2 and 2; enough cells | 0.77 | 5832
TVP23C | 0.6 | migration z between -2 and 2; enough cells | 1.04 | 4542
CLDN23 | 0.06 | migration z between -2 and 2; enough cells | 0.9 | 5062
OSTCP1 | -0.02 | migration z between -2 and 2; enough cells | 0.88 | 5652
ARAP2 | -0.68 | migration z between -2 and 2; enough cells | 0.7 | 6037
ESRP1 | 0.69 | migration z between -2 and 2; enough cells | 1.06 | 6742
MYOZ3 | -0.43 | migration z between -2 and 2; enough cells | 0.77 | 5904
TRPC4AP | 0.2 | migration z between -2 and 2; enough cells | 0.84 | 7211
OR10A7 | -0.29 | migration z between -2 and 2; enough cells | 0.82 | 6069
PRLH | -2.31 (active) | migration z below -2; enough cells | 0.3 | 5944
NINL | 1.19 | migration z between -2 and 2; enough cells | 1.19 | 5956
FXYD7 | -1.84 | migration z between -2 and 2; enough cells | 0.45 | 4604
LCN2 | -2.23 (active) | migration z below -2; enough cells | 0.38 | 5022
EPYC | -0.86 | migration z between -2 and 2; enough cells | 0.66 | 6521
IL18RAP | 1.55 | migration z between -2 and 2; enough cells | 1.1 | 4962
FAM114A2 | -0.11 | migration z between -2 and 2; enough cells | 0.86 | 6381
WDR31 | 0.32 | migration z between -2 and 2; enough cells | 0.86 | 6132
NDUFA13 | -1.25 | migration z between -2 and 2; enough cells | 0.55 | 3812
KIF13B | 0.24 | migration z between -2 and 2; enough cells | 0.94 | 5862
GIP | 0.85 | migration z between -2 and 2; enough cells | 1.11 | 6176
MPPED2 | 0.9 | migration z between -2 and 2; enough cells | 0.98 | 4048

Reagents above called active:
gene | migration robust z-score | migration class with cell-count check | migration relative to mock | nuclei per well, duplicate mean
HS3ST1 | -2.16 (active) | migration z below -2; enough cells | 0.39 | 5762
CHST6 | -2.1 (active) | migration z below -2; enough cells | 0.4 | 5450
CHMP5 | 2.3 (active) | migration z above 2; enough cells | 1.49 | 6914
FANCD2OS | -2.07 (active) | migration z below -2; enough cells | 0.35 | 5738
PRLH | -2.31 (active) | migration z below -2; enough cells | 0.3 | 5944
LCN2 | -2.23 (active) | migration z below -2; enough cells | 0.38 | 5022
